Data as given in PubChem BioAssay AID504808 (Drosophila RNAi Screening Center, 2011)
The deposit covers about 21,000 reagents; this is a random part of those with a known target gene and a result. Over the whole deposit, 18 (0.084%) got an active call. 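Raw counts without plate normalisation, one of two replicates; the ratio scores behind the calls were not deposited.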 Reagents against one gene are numbered here. A plus sign joins genes that one reagent is predicted to hit. No sequences are given here. The record does not give: the amount of reagent, the time to read-out.

Assay: 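Chromatin factors that keep E2F targets switched off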 (primary screen)
Cells: Drosophila S2 cells
Reagent: long dsRNA against Drosophila genes
Measurement: 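Dual luciferase plate measurements; E2F-specific signal taken as firefly over Renilla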
Direction: E2F firefly: higher = more E2F reporter activity; Renilla normaliser: higher = more normaliser reporter signal
Call rule: 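Called active if the normalised E2F reporter went up by over 50%; the cutoff is arbitrary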

no.	Gene	dsRNA no.	E2F firefly, rep 1	Renilla normaliser, rep 1	outcome
1	CG9588 (GeneID 41672)	1	1.05e5	5717	inactive
2	FER (GeneID 41118)	1	43430	2882	inactive
3	FER (GeneID 41118)	2	1.43e5	5407	inactive
4	CCKLR-17D3 (GeneID 32864)	1	1.38e5	3333	inactive
5	CCKLR-17D3 (GeneID 32864)	2	1.31e5	7081	inactive
6	CG9294 (GeneID 37491)	1	1.06e5	4917	inactive
7	Dus4 (GeneID 35179)	1	79980	4039	inactive
8	NTPase (GeneID 33495)	1	92609	3867	inactive
9	CG14340 (GeneID 33287)	1	1.47e5	5759	inactive
10	mTerf3 (GeneID 40279)	1	66369	3790	inactive
11	PolZ1 (GeneID 47186)	1	2788	177	inactive
12	Tcs4 (GeneID 32982)	1	1.65e5	5614	inactive
13	CG7142 (GeneID 42194)	1	1.34e5	7180	inactive
14	CG34238 (GeneID 5740238)	1	1.31e5	4715	inactive
15	klar (GeneID 38067)	1	84568	3637	inactive
16	Nmnat (GeneID 42987)	1	1.17e5	6038	inactive
17	CG7071 + Muted	1	1.38e5	6907	inactive
18	CG8435 (GeneID 36789)	1	65679	4139	inactive
19	CG18004 (GeneID 36154)	1	2802	199	inactive
20	CG31229 (GeneID 318636)	1	83571	2638	inactive
21	lectin-30A (GeneID 53541)	1	1.33e5	5056	inactive
22	CG14618 (GeneID 33134)	1	1.35e5	5844	inactive

Quoted from the listing, 6 entries:
no.	Gene	dsRNA no.	E2F firefly, rep 1	Renilla normaliser, rep 1	outcome
14	CG34238 (GeneID 5740238)	1	1.31e5	4715	inactive
15	klar (GeneID 38067)	1	84568	3637	inactive
16	Nmnat (GeneID 42987)	1	1.17e5	6038	inactive
17	CG7071 + Muted	1	1.38e5	6907	inactive
18	CG8435 (GeneID 36789)	1	65679	4139	inactive
19	CG18004 (GeneID 36154)	1	2802	199	inactive

The results go on:
no.	Gene	dsRNA no.	E2F firefly, rep 1	Renilla normaliser, rep 1	outcome
23	Lsp1beta (GeneID 33274)	1	72700	3466	inactive
24	CG3634 (GeneID 40301)	1	1.23e5	7889	inactive
25	CG7352 (GeneID 40997)	1	1.43e5	5939	inactive
26	CG34444 (GeneID 5740745)	1	96240	5074	inactive
27	CG3902 (GeneID 40059)	1	1.19e5	5390	inactive
28	Mst85C (GeneID 41089)	1	1.23e5	5760	inactive
29	Gr39b (GeneID 117347)	1	93939	2528	inactive
30	Arp8 (GeneID 32769)	1	1.46e5	5211	inactive
31	sxe2 (GeneID 41954)	1	80401	4132	inactive
32	CG15012 (GeneID 38529)	1	65815	2944	inactive
33	drosha (GeneID 35747)	1	3268	214	inactive
34	CG34353 (GeneID 5740590)	1	1.14e5	5986	inactive
35	CG34353 (GeneID 5740590)	2	1.22e5	6459	inactive
36	CG34353 (GeneID 5740590)	3	1.19e5	6617	inactive
37	CG34353 (GeneID 5740590)	4	1.07e5	5667	inactive
38	Girdin (GeneID 38385)	1	1.01e5	4650	inactive
39	mod(mdg4) + pre-mod(mdg4)-U	1	88458	3004	inactive
40	TfIIEbeta (GeneID 38527)	1	92465	4269	inactive
41	Nckx30C (GeneID 45248)	1	1.43e5	5436	inactive
42	Nckx30C (GeneID 45248)	2	1.52e5	4824	inactive
43	Nckx30C (GeneID 45248)	3	1.61e5	5410	inactive
44	Nckx30C (GeneID 45248)	4	1.22e5	4811	inactive
45	Reg-2 (GeneID 38075)	1	73746	2806	inactive
46	CG16772 (GeneID 35281)	1	92592	4032	inactive
47	CG17085 (retired record) (GeneID 34501)	1	1.57e5	4689	inactive
48	CG17085 (retired record) (GeneID 34501)	2	1.59e5	5233	inactive
49	MED16 (GeneID 37535)	1	1.02e5	4132	inactive
50	GM130 (GeneID 37524)	1	86391	3205	inactive
51	sigmar (GeneID 37751)	1	83361	3600	inactive
52	mRpS31 (GeneID 39749)	1	81046	4370	inactive
53	CG17777 (GeneID 50374)	1	1.30e5	6095	inactive
54	zye (GeneID 40255)	1	1.50e5	7258	inactive
55	CCDC53 (GeneID 34097)	1	1.51e5	5644	inactive
56	Amy-d (GeneID 36932)	1	1.31e5	5548	inactive
57	fbp (GeneID 35265)	1	76565	3314	inactive
